Test results reported in article PMC8113592.
No constants are given. Whether binding was seen depends on the method and setting. In cells and extracts the contact can be indirect. Some entries that bind do so weakly or less than the wild type. For some of these results: Tags and fused reporters may be left off the sequences shown.

The chains behind the UniProt entries cited, without tags or fusion partners. Where a name states a change or a piece, a line headed by the entry shows the natural chain unless it says otherwise.
UniProt Q8R4B8: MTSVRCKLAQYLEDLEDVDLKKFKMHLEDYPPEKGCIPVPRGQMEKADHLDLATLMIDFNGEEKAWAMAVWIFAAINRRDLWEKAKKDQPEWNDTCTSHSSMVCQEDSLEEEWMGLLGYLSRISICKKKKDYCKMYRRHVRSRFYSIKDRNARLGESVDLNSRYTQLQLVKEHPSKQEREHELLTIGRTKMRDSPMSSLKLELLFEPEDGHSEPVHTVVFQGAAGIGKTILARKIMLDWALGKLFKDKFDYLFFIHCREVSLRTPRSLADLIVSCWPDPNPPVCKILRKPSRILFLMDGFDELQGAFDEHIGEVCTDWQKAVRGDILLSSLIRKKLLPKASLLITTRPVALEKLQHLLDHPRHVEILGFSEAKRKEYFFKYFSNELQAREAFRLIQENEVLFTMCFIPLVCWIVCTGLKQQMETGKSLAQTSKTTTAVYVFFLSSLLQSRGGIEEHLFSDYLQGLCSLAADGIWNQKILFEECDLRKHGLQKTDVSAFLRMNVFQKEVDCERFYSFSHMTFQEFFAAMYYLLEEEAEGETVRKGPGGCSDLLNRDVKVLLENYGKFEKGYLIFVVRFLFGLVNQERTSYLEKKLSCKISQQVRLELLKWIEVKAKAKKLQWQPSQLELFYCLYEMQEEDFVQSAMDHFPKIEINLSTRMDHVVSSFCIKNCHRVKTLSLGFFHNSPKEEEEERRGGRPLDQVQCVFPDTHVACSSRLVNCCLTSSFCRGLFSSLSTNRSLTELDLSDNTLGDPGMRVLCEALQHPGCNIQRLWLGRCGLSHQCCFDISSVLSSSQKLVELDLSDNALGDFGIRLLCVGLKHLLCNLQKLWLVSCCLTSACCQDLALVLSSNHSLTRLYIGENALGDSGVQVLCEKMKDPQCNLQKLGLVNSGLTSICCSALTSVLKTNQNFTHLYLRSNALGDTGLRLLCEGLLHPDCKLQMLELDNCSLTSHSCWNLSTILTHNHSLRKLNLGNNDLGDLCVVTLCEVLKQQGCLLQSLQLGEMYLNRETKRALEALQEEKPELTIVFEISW
UniProt P46938: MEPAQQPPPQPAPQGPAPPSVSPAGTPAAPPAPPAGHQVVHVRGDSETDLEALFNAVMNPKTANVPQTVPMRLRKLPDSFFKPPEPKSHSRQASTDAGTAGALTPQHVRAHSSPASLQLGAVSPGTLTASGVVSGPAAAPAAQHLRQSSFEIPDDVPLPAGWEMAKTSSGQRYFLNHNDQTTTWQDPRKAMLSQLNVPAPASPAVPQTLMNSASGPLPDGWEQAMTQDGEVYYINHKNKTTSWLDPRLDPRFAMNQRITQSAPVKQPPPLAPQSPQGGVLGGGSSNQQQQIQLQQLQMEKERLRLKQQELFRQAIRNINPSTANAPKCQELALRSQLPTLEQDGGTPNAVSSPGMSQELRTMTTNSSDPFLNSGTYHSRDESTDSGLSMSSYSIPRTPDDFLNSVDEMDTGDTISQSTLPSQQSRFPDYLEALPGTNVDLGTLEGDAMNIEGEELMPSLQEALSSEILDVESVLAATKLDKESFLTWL

Columns and labels:
Myc-tagged NLRP3 (mouse) [1] = target: Myc-tagged NLRP3 (mouse) (UniProt Q8R4B8); assay: co-IP; HEK293T cells transfected with Myc-NLRP3 and Flag-β-TrCP1, with or without YAP constructs; IP with anti-Myc, probed with anti-Flag
Myc-tagged NLRP3 (mouse) [2] = target: Myc-tagged NLRP3 (mouse) (UniProt Q8R4B8); assay: co-IP; HEK293T cells co-transfected with tagged plasmids; IP buffer (1% Nonidet P-40, 50 mM Tris-HCl pH 7.4, 50 mM EDTA, 150 mM NaCl); anti-Flag M2 or anti-Myc affinity gel 2 h; immunoblot
[3] = target: NLRP3 (endogenous, mouse peritoneal macrophages) (mouse (endogenous in peritoneal macrophages)) (UniProt Q8R4B8); assay: proximity ligation; Duolink; primary macrophages, LPS 4 h or not, fixed and permeabilised; primary antibody pairs of different species
[4] = target: T1, Flag-tagged β-TrCP1 (mouse) (UniProt Q3ULA2); assay: co-IP; HEK293T cells co-transfected with tagged plasmids; IP buffer (1% Nonidet P-40, 50 mM Tris-HCl pH 7.4, 50 mM EDTA, 150 mM NaCl); anti-Flag M2 or anti-Myc affinity gel 2 h; immunoblot
T1 sequence: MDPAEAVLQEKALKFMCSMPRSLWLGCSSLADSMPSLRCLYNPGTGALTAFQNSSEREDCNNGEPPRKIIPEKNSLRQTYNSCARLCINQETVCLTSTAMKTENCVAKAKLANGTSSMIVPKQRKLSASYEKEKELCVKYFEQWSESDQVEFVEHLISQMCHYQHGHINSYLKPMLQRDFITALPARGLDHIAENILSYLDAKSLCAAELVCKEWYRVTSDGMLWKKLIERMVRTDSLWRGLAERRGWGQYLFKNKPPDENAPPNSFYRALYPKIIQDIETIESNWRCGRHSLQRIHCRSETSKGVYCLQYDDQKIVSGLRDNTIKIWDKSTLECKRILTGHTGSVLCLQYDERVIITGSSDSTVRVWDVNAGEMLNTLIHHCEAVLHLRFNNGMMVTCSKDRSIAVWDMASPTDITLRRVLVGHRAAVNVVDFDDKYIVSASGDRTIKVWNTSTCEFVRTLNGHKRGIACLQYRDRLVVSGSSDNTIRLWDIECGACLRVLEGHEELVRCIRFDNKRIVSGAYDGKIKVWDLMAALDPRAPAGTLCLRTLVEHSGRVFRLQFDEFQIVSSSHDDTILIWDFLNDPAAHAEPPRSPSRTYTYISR

Myc-tagged NLRP3 (mouse) [5] = target: Myc-tagged NLRP3 (mouse) (UniProt Q8R4B8); assay: co-IP; HEK293T cells transfected with Myc-NLRP3 and Flag-β-TrCP1, with or without YAP constructs; IP with anti-Myc, probed with anti-Flag; remark: listed apart in the source
Myc-tagged NLRP3 (mouse) [6] = target: Myc-tagged NLRP3 (mouse) (UniProt Q8R4B8); assay: co-IP; HEK293T cells co-transfected with tagged plasmids; IP buffer (1% Nonidet P-40, 50 mM Tris-HCl pH 7.4, 50 mM EDTA, 150 mM NaCl); anti-Flag M2 or anti-Myc affinity gel 2 h; immunoblot; remark: listed apart in the source
[7] = target: NLRP3 S194A/S197A/S198A (mouse) (UniProt Q8R4B8); assay: as above
[8] = target: NLRP3 S891A/S895A mutant (mouse) (UniProt Q8R4B8); assay: as above
[9] = target: NLRP3 (endogenous, mouse peritoneal macrophages) (mouse (endogenous in peritoneal macrophages)) (UniProt Q8R4B8); assay: co-IP; endogenous proteins; Yap fl/fl lyz2-Cre or Yap fl/fl mouse peritoneal macrophages stimulated with LPS for 4 h or not; IP with anti-NLRP3, probed with anti-β-TrCP1

With His-YAP (from UniProt P46938 1-488) the binding (Myc-tagged NLRP3 (mouse) [1]) was “binds”.

“YAP C-terminal transactivation domain (residues 151–488) (from UniProt P46938 151-488) (domain or fragment)” was tested, and the binding (Myc-tagged NLRP3 (mouse) [2]) was “binds”.

For “YAP (endogenous, mouse peritoneal macrophages) (from UniProt P46938 1-488)”, the binding [3] was “binds”.

With “wild-type YAP (transfected; tag not told for these experiments) (from UniProt P46938 1-488)” the binding [4] was “binds” and the binding (Myc-tagged NLRP3 (mouse) [2]) was “binds”.

B1: Flag-tagged β-TrCP1 (protein, UniProt Q3ULA2 1-605)
chain: T1 sequence
For B1, the binding (Myc-tagged NLRP3 (mouse) [5]) was “binds”, the binding (Myc-tagged NLRP3 (mouse) [6]) was “binds” and the binding [7] was “binds”. For the same molecule, the binding [8] was “no binding”.

B2: β-TrCP1 (endogenous, mouse peritoneal macrophages) (protein, UniProt Q3ULA2 1-605)
chain: T1 sequence
B2 was tested, and the binding [9] was “binds”.
